# Results are given in words; binding and its absence hold for the method and conditions named. In cells and extracts the contact can be indirect. Some results given as binding are weak or reduced against the parent protein; the word gives no strength. For part of these data: Where a sequence is shown, tags or fusion partners need not be part of it.
# The chains behind the UniProt entries cited, without tags or fusion partners. Residues count along the entry.
# UniProt P23572: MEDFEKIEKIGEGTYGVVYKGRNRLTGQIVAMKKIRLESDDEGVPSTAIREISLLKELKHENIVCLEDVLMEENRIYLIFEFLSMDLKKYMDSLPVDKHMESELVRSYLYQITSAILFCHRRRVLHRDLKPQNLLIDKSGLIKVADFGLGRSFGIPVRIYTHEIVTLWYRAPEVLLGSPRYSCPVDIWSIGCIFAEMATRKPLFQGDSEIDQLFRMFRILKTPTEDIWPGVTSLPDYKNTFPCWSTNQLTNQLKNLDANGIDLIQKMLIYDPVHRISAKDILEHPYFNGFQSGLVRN
# UniProt P18537, residues 19-581: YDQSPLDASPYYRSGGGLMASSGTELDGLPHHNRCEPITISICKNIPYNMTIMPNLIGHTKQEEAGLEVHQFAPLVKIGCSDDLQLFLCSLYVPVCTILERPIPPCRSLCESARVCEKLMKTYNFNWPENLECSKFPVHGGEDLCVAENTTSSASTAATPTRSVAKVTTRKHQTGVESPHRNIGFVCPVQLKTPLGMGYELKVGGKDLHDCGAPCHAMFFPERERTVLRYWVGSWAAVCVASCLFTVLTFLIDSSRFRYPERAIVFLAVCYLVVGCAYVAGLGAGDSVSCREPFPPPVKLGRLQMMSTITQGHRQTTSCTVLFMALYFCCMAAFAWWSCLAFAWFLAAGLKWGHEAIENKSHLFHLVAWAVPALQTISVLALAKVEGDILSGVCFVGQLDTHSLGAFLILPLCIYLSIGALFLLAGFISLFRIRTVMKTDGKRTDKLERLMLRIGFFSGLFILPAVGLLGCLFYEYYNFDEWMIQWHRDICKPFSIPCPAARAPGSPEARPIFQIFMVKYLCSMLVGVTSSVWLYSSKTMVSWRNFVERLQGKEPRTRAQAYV
# Assays:
# [1] = target: T1, CycA::HA (HA-tagged Cyclin A, from UAS-CycA::HA) (Drosophila melanogaster) (UniProt P14785); test: co-IP; lysates of embryos overexpressing CycA::HA, Fz::GFP and Dsh::myc; beads coupled to HA antibodies, 3 h at 4 °C; 200 mM Tris pH7.5, 150 mM NaCl, 0.2% NP40; western blot with anti-GFP, anti-Myc, anti-Cdk1 (PSTAIR); controls: embryos with only Fz::GFP and Dsh::myc, or w1118
# T1 sequence: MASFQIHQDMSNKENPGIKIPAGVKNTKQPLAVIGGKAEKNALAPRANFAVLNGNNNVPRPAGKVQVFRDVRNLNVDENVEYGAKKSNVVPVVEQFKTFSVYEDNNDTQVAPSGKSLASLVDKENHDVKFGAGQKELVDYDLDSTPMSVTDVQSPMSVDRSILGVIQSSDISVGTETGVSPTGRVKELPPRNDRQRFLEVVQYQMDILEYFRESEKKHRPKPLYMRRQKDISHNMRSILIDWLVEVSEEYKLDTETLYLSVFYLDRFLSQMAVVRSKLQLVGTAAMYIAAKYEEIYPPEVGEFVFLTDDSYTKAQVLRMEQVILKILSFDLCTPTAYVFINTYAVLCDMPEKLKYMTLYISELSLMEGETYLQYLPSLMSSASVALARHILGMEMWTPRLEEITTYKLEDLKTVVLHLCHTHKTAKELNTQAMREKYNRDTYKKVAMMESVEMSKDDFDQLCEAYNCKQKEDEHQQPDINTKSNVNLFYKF
# [2] = target: T2, Cyclin A (endogenous CycA in pI cells) (Drosophila melanogaster (endogenous in pupal pI cells)) (UniProt P14785); test: proximity ligation; DuoLink kit on fixed pupal nota; rabbit anti-CycA and mouse anti-GFP; epitopes <40 nm apart give a dot; pI cells of arm-fz::GFP pupae with or without overexpressed CycA:HA, or of DE-Cad::GFP pupae
# T2 sequence: T1 sequence
Substance,binding [1],binding [2]
Cdk1 (from UniProt P23572 1-297) (enzyme),binds,
"Fz::GFP (Frizzled fused to GFP, arm-fz::GFP) (from UniProt P18537 19-581) (receptor)",binds,binds

# — publication PMC9114397
